According to publication PMC9367327:
The exact form of at least one protein or probe is not confirmed. No signal at the amounts used counts as a negative. For some assays here: At least one verdict rests on a figure or table, not on a statement of the authors.

Chains of the proteins cited; added tags and fusions are not shown. A line that says so, or that is headed by a name, gives the form on record, which may keep a tag or linker.
UniProt P08515, whole entry: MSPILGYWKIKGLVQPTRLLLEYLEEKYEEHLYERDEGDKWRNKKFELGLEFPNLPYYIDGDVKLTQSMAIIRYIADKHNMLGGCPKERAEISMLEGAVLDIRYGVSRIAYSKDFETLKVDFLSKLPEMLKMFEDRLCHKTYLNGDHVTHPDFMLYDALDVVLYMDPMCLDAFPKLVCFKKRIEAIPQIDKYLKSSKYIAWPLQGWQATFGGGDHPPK
GST-GhWRKY33 (Gossypium hirsutum), one chain, as listed by the source: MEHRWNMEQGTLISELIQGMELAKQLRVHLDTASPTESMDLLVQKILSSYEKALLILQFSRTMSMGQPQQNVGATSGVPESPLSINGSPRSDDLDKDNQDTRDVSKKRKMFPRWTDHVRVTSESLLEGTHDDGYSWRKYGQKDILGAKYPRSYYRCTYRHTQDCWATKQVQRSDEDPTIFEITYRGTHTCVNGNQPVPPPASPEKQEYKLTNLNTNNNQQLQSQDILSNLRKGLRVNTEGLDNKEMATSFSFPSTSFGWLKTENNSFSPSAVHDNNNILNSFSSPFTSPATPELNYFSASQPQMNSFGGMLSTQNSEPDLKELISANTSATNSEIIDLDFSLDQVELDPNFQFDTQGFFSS

How the values were obtained:
[1] = system: GST-GhWRKY33 (Gossypium hirsutum); assay: EMSA; settings: Chemiluminescent EMSA Kit (Beyotime), manufacturer's protocol, pH and temperature not stated, recombinant protein, protein details: N-terminal GST
[2] = biological target: GST (UniProt P08515); assay: EMSA; settings: Chemiluminescent EMSA Kit (Beyotime), manufacturer's protocol; pH and temperature not stated; recombinant protein; label: 5' biotin
[3] = signal decreased by unlabeled WT competitor, label: 5' biotin

Sequence: ACAATAATTGGTACAAAAATGAAATTTGTAAG (double strand) [m-proGhcysp probe]
- binding result [1]: no binding

Sequence: ACAATAATTGGTACGTCAATGAAATTTGTAAG (double strand) [proGhcysp probe]
- binding result [1, 3]: binds

Sequence: ATTGTGATTTAATTTGTTGACTAGGGCGATT (double strand) [proAtSAG12 probe]
- binding result [2]: no binding
- binding result [1, 3]: binds

Sequence: ATTGTGATTTAATTTGTTTTTTAGGGCGATT (double strand) [m-proAtSAG12 probe]
- binding result [1]: no binding
